{"source": "paper PMC5701254", "target": "T1, endogenous LAMP2A (lysosome-associated membrane protein 2 A) (mouse (endogenous in SN4741)) (UniProt P17047)", "T1 sequence": "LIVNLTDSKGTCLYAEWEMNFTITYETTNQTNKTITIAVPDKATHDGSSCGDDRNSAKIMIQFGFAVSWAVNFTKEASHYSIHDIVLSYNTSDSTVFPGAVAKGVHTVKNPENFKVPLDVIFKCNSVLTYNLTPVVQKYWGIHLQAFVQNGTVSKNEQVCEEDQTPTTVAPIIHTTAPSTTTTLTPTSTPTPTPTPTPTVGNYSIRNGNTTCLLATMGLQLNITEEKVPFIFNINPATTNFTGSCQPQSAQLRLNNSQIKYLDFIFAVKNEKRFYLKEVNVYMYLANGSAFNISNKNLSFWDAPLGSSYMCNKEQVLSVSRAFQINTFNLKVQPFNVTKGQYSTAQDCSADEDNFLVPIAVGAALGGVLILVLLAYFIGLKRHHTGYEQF", "assay": "co-IP; immunoprecipitation of endogenous proteins from SN4741 cells, basal condition and after Tg treatment; which protein was precipitated is not told", "note": "Results are given in words; binding and its absence hold for the method and conditions named. Binding seen in cells or lysates may run through a third protein. A result given as binding can be weak or reduced; the word gives no strength.", "data": [{"substance": "endogenous p38 MAPK (mouse (endogenous in SN4741)) (enzyme)", "values": [{"measurement": "binding", "result": "binds"}]}]}
